AC50 data for 39 compounds are collected here from PubChem BioAssay AID445 (National Center for Advancing Translational Sciences (NCATS), 2006).

“And” between values parts separate entries of the source, which are not always exact repeats. Equal entries are not always repeated. This is one part of the list. Shown are side measurements of this screen, not its main read-out; they come without a call. The list favours compounds with an active or inconclusive main result. Words in brackets tell the shape of the fitted curve; partial curves, single points and poor fits give uncertain potencies.

This assay can be described thus: IkB Signaling. The following applies: ABC-DLBCL IkBa-CBG/CBR dual luciferase ratio (green luciferase fused to IkBa over red control in OCI-Ly3 lymphoma cells), 4 h; measured here: control luc red channel unless noted. The source says: NIH Molecular Libraries Screening Centers Network [MLSCN]
NIH Chemical Genomics Center [NCGC]
Nuclear factor kappa-B (NF-kappa-B) plays an important role in normal B cell development and survival. Diffuse large B cell lymphoma (DLBCL) is the most commonly observed type of non-Hodgkin's lymphoma. Gene expression analysis has identified an activated B cell-like subtype of DLBCL (ABC-DLBCL) which expresses known NF-kappa-B target genes. […] However, targets upstream of IKK have been largely unexplored and so nodes upstream of IKK in the NF-kappa-B pathway remain untested due to the lack of chemical probes.
A cell-sensor assay for I-kappa-B-alpha stabilization was developed with NIH investigator Dr. R. Eric Davis in Dr. Louis M. Staudt's laboratory. The assay uses green (CBG68) and red (CBR) emitting beetle luciferases [Chroma-Glo(TM) developed by Promega Corp.] where the green luciferase is fused to I-kappa-B-alpha and the red luciferase is present in its native state. Both luciferase genes are stably present in the OCI-Ly3 human ABC DLBCL cell line, but their expression is under the control of tetracycline-inducible promoters. Following the addition of doxycycline to induce expression of the luciferases, the green luminescence in control cultures rises only slowly because the CBG fusion partner I-kappa-B-alpha is targeted by IKK activity for rapid degradation. In contrast, green luminescence rises rapidly in the presence of proteasome inhibitors or IKK inhibitors. The rise in red luminescence of CBR is not affected by proteasome or IKK inhibitors, and serves as normalization for cell number and nonspecific effects. Compounds were screened as a concentration-titration series that ranged from 57 uM to 0.7 nM.
NCGC Assay Protocol Summary:
Cells were seeded in 1536-well plates at 5000 cells/3ul in IMDM medium containing 0.5% FBS, w/o phenol red, L-glutamine, 25 mM HEPES, 3 mg/ml sodium bicarbonate. After centrifugation for 1 min. at 1000 rpm, 23 nl of compounds or DMSO were delivered to each well using a pin tool. Then 1ul 80ng/ml doxycycline was dispensed into white solid 1536-well plates and the plates were incubated at 37C/5% C02 in a cell incubator for 4 hrs. Then 4 ul Chroma-Glo luminescent substrate mix (Promega) was added to each well. The plate was incubated at R.T. for 10-15 min. The plates were measured on a ViewLux plate reader for green luminescence (540/20 nm filter) and red luminescence (618/8 nm filter). The green and red luminescent signals were corrected for red and green luminescence filter overlap using previously determined filter calibration constants (determined using the procedure outlined in the Promega Technical Manual). The %Activity was determined from the ratio of corrected green/red luminescent values. Green luminescent and ratio %Activity was determined by normalizing to the difference in signal between basal cells (0% Activity) and cells incubated with 10 uM of the proteasome inhibitor MG-132 (100% Activity). Red luminescent %Activity was normalized to the difference between red luminesence in basal cells (0%Activity) and zero luminescence (-100% Activity).
Concentration-response curves were fitted to the signals arising from the green luminescence (I-kappa-B-alpha-luciferase fusion; IkB-luc) and the red luminescence (unfused luciferase; luc) as well as the calculated ratio. The concentration-effect curves were then classified based on curve quality (r2), response magnitude and degree of measured activity. Compounds were then categorized based on their concentration-response curves for all three datasets (Ikb-luc, luc and ratio).
Keywords: IKK, I-kappa-B, IkB, IkBa, cytotoxicity, luminescence, MLSMR, MLSCN, NIH Roadmap, qHTS, NCGC
Consider `COc1ccc(Nc2cc(C)nc(-n3nc(C)cc3C)n2)cc1Cl`, for which the AC50 was 3.98 µM [rising, partial curve]. Turning to `CN(CCC#N)c1ncnc2scc(-c3ccccc3)c12`, the AC50 is 12.6 µM [falling, partial curve]. The same measure for `Cc1cc(C)c(C#N)c(N2CCN(CCOc3ccc(Cl)cc3)CC2)n1`: 12.6 µM [falling, partial curve]; for `COc1ccc(OC)c(NS(=O)(=O)c2ccc3c(c2)CCCN3C(=O)C2CCC2)c1`: 31.6 µM [falling, single point].

Regarding `O=C(Nc1ccc(F)cc1F)c1cc(CN2CCOCC2)on1`, the AC50 is 12.6 µM [falling, partial curve]. For the compound `Cc1ccc(S(=O)(=O)Nc2ccc3c(c2)CCCN3C(=O)c2cccs2)cc1C`, the AC50 is 31.6 µM [falling, partial curve].

In the case of `COc1cccc(C2=NOC(C(=O)N3CCc4ccccc4C3)C2)c1` (centres undefined), the AC50 is 15.8 µM [falling, partial curve].

`O=C(NCC(c1ccc2c(c1)OCO2)N1CCOCC1)C(=O)Nc1ccc(Cl)cc1` (centres undefined): the AC50 is 1 µM [falling, full curve]. As to `Oc1cccc(-c2nc(-c3cccs3)c(-c3cccs3)[nH]2)c1`, the AC50 is 15.8 µM [falling, partial curve]. On to `Cc1ccc(NS(=O)(=O)c2ccc(-c3cc(C)no3)cc2)c(C)c1`, for which the AC50 is 31.6 µM [falling, partial curve]. The same measure for `Cn1c(=O)oc2cc(S(=O)(=O)N3CCCC(C(=O)N4CCN(c5ccc(F)cc5)CC4)C3)ccc21` (centres undefined): 15.8 µM [falling, partial curve]; for `Cc1ccccc1OCC(=O)Nc1nnc(S(=O)(=O)N2CCCCCC2)s1`: 20 µM [rising, partial curve]. The same measure for `CCc1nn2c(=O)cc(COC(=O)c3ccccc3NC(=O)c3ccc(C(C)(C)C)cc3)nc2s1`: 3.98 µM [falling, full curve]. The same measure for `CC(Oc1ccc(Br)cc1)C(=O)N(Cc1nc(-c2ccccc2)no1)C(C)C` (centres undefined): 25.1 µM [falling, partial curve]. For the compound `O=C(NCCCN1CCN(c2ccccc2)CC1)c1ccc2nc(CCc3ccccc3)oc2c1`, the AC50 was 31.6 µM [falling, partial curve]. Take `Cc1ccc(-n2c(-c3cccc(C)c3)nc3c(cnn3-c3ccccc3)c2=O)cc1`: the AC50 is 31.6 µM [falling, single point].

With `CCOC(=O)CSc1ncnc2c1cnn2-c1ccc(C)cc1`, the AC50 is 31.6 µM [falling, partial curve]. As for `Cc1ccc2cc3cc(C(=O)NCCCN4CCc5ccccc5C4)oc3nc2c1`, the AC50 was 25.1 µM [falling, partial curve]. Regarding `CCS(=O)(=O)N1CCc2cc(C(=O)Nc3cccc(NC(C)=O)c3)ccc21`, the AC50 was 31.6 µM [falling, single point]. On to `O=C(Cn1ncc2c1-c1ccccc1OC2)Nc1ccc(S(=O)(=O)N2CCCCC2)cc1`, for which the AC50 was 12.6 µM [falling, partial curve]. The same measure for `Cc1ccc(C2c3[nH]c4ccccc4c3CCN2C(=O)CSc2ccccc2)cc1` (centres undefined): 25.1 µM [falling, partial curve]; for `S=C(S)N1CCCC1`: 31.6 µM [rising, partial curve] [measured here: IkB-luc green channel] and 39.8 µM [rising, single point] [measured here: IkB-luc green channel]; for `N#Cc1cc2c(nc1SCc1nc3ccccc3[nH]1)CCC2`: 15.8 µM [falling, partial curve]. Regarding `O=C(CN1CCCN(Cc2cccc(F)c2)S1(=O)=O)Nc1ccc2c(c1)OCCO2`, the AC50 was 12.6 µM [falling, partial curve].

As to `Cc1cccc(-c2nc(C)c(CCNC(=O)c3cccs3)s2)c1`, the AC50 was 39.8 µM [falling, single point]. The same measure for `O=C(NCC(c1cccnc1)N1CCc2ccccc2C1)C(=O)Nc1ccc(F)cc1F` (centres undefined): 5.01 µM [rising, partial curve].

As to `COC(=O)c1nnn(-c2ccc(Cl)cc2)c1C(=O)OC`, the AC50 was 0.00501 µM [rising, full curve, poor fit]. The same measure for `O=C(CCS(=O)(=O)c1nc(-c2ccc3c(c2)OCO3)cc(C(F)(F)F)n1)Nc1ccc(F)cc1F`: 15.8 µM [falling, partial curve]. The same measure for `CCS(=O)(=O)c1ncc(Cl)c(C(=O)Nc2c(C(=O)c3ccc(C)cc3)oc3ccccc23)n1`: 12.6 µM [falling, partial curve]; for `Cc1ccc(-n2ncc(C(=O)N3CCN(C(=O)c4ccco4)CC3)c2C2CCN(C(=O)OC(C)(C)C)CC2)cc1`: 10 µM [falling, single point]. The same measure for `CC(C)c1ccc(NC(=O)CCNS(=O)(=O)c2ccc3c(c2)oc(=O)n3C)cc1`: 25.1 µM [falling, partial curve]. Regarding `O=C(c1ccc2c(c1)N(Cc1cccc(Cl)c1)C(=O)c1ccccc1S2(=O)=O)N1CCCCCC1`, the AC50 was 31.6 µM [falling, single point]. Turning to `Cc1ccc2c(c1)N(C(=O)N1CCC(C(=O)NCc3cccs3)CC1)CC(C)O2` (centres undefined), the AC50 is 5.01 µM [falling, partial curve]. The same measure for `Cc1ccc(SCC(=O)N(Cc2nc(-c3ccccc3)no2)C(C)C)cc1`: 31.6 µM [falling, single point]. The same measure for `CC(C)C[C@H]1C(=O)N2CCC[C@@H]2[C@]2(O)O[C@](NC(=O)[C@@H]3C=C4c5cccc6[nH]c(Br)c(c56)C[C@H]4N(C)C3)(C(C)C)C(=O)N12`: 39.8 µM [falling, single point]; for `Cc1oc(C(C)(C)C)cc1C(=O)Nc1ccc2c(c1)OCCO2`: 31.6 µM [falling, single point]; for `Cc1ccc(-c2c(C(=O)N(C)Cc3ccccc3)oc(=O)c3ccccc23)cc1`: 25.1 µM [falling, single point]. The same measure for `COc1ccccc1NC(=O)C1=C(C)Nc2c(C(=O)Nc3cccc(C)c3)cnn2C1c1ccccc1C` (centres undefined): 10 µM [falling, partial curve]; for `Cc1ccc(/C=C/c2nc3ccccc3n2S(=O)(=O)c2cccc(Cl)c2)cc1`: 1 µM [falling, full curve].

The term AC50 denotes the midpoint of the concentration-response curve, whichever way the signal moves.
